In the supplement of paper PMC4604168 (melanoma cell lines):
The list shows a part of the results. Many values rest on one well or one pass, so single values are uncertain.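 Imaging used 1,536-well plates; nuclei positive for cleaved PARP by antibody were divided by total DNA-stained nuclei to yield the apoptosis fraction. Doses for screening kept most cells viable, and cell lines differ markedly in resting and induced cleaved-PARP levels.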

tested on: A101D; assay: cleaved PARP positive nuclei fraction relative to DMSO control; melanoma cells; higher = more apoptosis; conditions: library dose: low library concentration; 72 h

| SMILES | cleaved PARP positive nuclei fraction [%] |
| --- | --- |
| O=C(Nc1cccc(Cl)c1)Nc1ncc(CCNc2ncnc3ccsc23)s1 + O=C(O)c1ccc(-c2c[nH]c3ncc(-c4ccccc4)cc23)cc1C1CCCC1 [GSK650394] (first compound 0.0008 µM, partner dose 0.16 µM) | 39.3 |
| O=C(Nc1cccc(Cl)c1)Nc1ncc(CCNc2ncnc3ccsc23)s1 + CN(NC(=O)CC(=O)NN(C)C(=S)c1ccccc1)C(=S)c1ccccc1 [STA4783] (first compound 0.0008 µM, partner dose 0.006 µM) | 106 |
| Cn1nnc2c(C(N)=O)ncn2c1=O [temozolomide] + Cc1cc([N+](=O)[O-])ccc1NS(=O)(=O)c1cc(Cl)ccc1Cl [FH535] (first compound 2 µM, partner dose 1 µM) | 138 |
| Cc1nc(Nc2ncc(C(=O)Nc3c(C)cccc3Cl)s2)cc(N2CCN(CCO)CC2)n1 [dasatanib] + C[C@]1(c2nc3c(C(N)=O)cccc3[nH]2)CCCN1 [Veliparib] (first compound 0.004 µM, partner dose 1.4 µM) | 218 |
| NC(=O)Nc1cc(-c2cccc(F)c2)sc1C(=O)N[C@H]1CCCNC1 + O=C(Nc1cccc(Cl)c1)Nc1ncc(CCNc2ncnc3ccsc23)s1 [SNS314] (first compound 0.02 µM, partner dose 0.0008 µM) | 89.8 |
| CC1(C)NC(=O)N(c2ccc([N+](=O)[O-])c(C(F)(F)F)c2)C1=O [nilutamide] + CO[C@@H]1[C@H](N(C)C(=O)c2ccccc2)C[C@H]2O[C@]1(C)n1c3ccccc3c3c4c(c5c6ccccc6n2c5c31)C(=O)NC4 [Midostaurin] (first compound 1 µM, partner dose 0.08 µM) | 121 |
| Cc1nc(Nc2ncc(C(=O)Nc3c(C)cccc3Cl)s2)cc(N2CCN(CCO)CC2)n1 [dasatanib] + Cn1cc(/C=C2\C(=O)Nc3cccnc32)c2ccccc21 [GW441756] (first compound 0.004 µM, partner dose 0.4 µM) | 136 |
| OCc1c[nH]c2ccccc12 [Indole-3-carbinol] + Clc1ccc(Nc2nnc(Cc3ccncc3)c3ccccc23)cc1 [vatalanib] (first compound 0.8 µM, partner dose 2 µM) | 94.8 |
| C=CCNC1=C2C[C@@H](C)C[C@H](OC)[C@H](O)[C@@H](C)/C=C(\C)[C@H](OC(N)=O)[C@@H](OC)/C=C\C=C(/C)C(=O)NC(=CC1=O)C2=O [Tanespimycin] + Cn1nnc2c(C(N)=O)ncn2c1=O [temozolomide] (first compound 0.002 µM, partner dose 2 µM) | 102 |
| Cc1cc(N2CCOCC2)cc2[nH]c(-c3c(NC[C@@H](O)c4cccc(Cl)c4)cc[nH]c3=O)nc12 + Oc1nc(-c2ccc(C(F)(F)F)cc2)nc2c1CSCC2 [XAV939] (first compound 0.2 µM, partner dose 2 µM) | 142 |
| Clc1ccc(Nc2nnc(Cc3ccncc3)c3ccccc23)cc1 [vatalanib] + COc1cc(Nc2ncc(F)c(Nc3ccc4c(n3)NC(=O)C(C)(C)O4)n2)cc(OC)c1OC [Tamatinib] (first compound 2 µM, partner dose 0.4 µM) | 93.9 |
| Cc1cc(N2CCOCC2)cc2[nH]c(-c3c(NC[C@@H](O)c4cccc(Cl)c4)cc[nH]c3=O)nc12 + Oc1cc(-c2nc(-c3ccccc3)[nH]c2-c2ccncc2)ccc1Cl [L779450] (first compound 0.2 µM, partner dose 0.2 µM) | 61.3 |
| C=CCn1c(=O)c2cnc(Nc3ccc(N4CCN(C)CC4)cc3)nc2n1-c1cccc(C(C)(C)O)n1 + Cc1cc([N+](=O)[O-])ccc1NS(=O)(=O)c1cc(Cl)ccc1Cl [FH535] (first compound 0.02 µM, partner dose 1 µM) | 138 |
| Cc1ccc(NC(=O)c2cccc(N(C)C)c2)cc1NC(=O)c1ccc(O)cc1 + CC(C)(C)c1cnc(CSc2cnc(NC(=O)C3CCNCC3)s2)o1 [SNS-032] (first compound 2 µM, partner dose 0.01 µM) | 85.4 |
| Cc1nc(Nc2ncc(C(=O)Nc3c(C)cccc3Cl)s2)cc(N2CCN(CCO)CC2)n1 [dasatanib] + NC(=O)Nc1cc(-c2cccc(F)c2)sc1C(=O)N[C@H]1CCCNC1 [AZD7762] (first compound 0.004 µM, partner dose 0.02 µM) | 187 |

4 entries from above, set out differently:
SMILES	cleaved PARP positive nuclei fraction [%]
Clc1ccc(Nc2nnc(Cc3ccncc3)c3ccccc23)cc1 [vatalanib] + COc1cc(Nc2ncc(F)c(Nc3ccc4c(n3)NC(=O)C(C)(C)O4)n2)cc(OC)c1OC [Tamatinib] (first compound 2 µM, partner dose 0.4 µM)	93.9
Cc1cc(N2CCOCC2)cc2[nH]c(-c3c(NC[C@@H](O)c4cccc(Cl)c4)cc[nH]c3=O)nc12 + Oc1cc(-c2nc(-c3ccccc3)[nH]c2-c2ccncc2)ccc1Cl [L779450] (first compound 0.2 µM, partner dose 0.2 µM)	61.3
C=CCn1c(=O)c2cnc(Nc3ccc(N4CCN(C)CC4)cc3)nc2n1-c1cccc(C(C)(C)O)n1 + Cc1cc([N+](=O)[O-])ccc1NS(=O)(=O)c1cc(Cl)ccc1Cl [FH535] (first compound 0.02 µM, partner dose 1 µM)	138
Cc1ccc(NC(=O)c2cccc(N(C)C)c2)cc1NC(=O)c1ccc(O)cc1 + CC(C)(C)c1cnc(CSc2cnc(NC(=O)C3CCNCC3)s2)o1 [SNS-032] (first compound 2 µM, partner dose 0.01 µM)	85.4
